Our source for the NP40-soluble protein abundance values is the supplement of paper PMC6411743.

The chains behind the UniProt entries cited, without tags or fusion partners. Where a name states a change or a piece, a line headed by the entry shows the natural chain unless it says otherwise.
UniProt P07437, whole entry: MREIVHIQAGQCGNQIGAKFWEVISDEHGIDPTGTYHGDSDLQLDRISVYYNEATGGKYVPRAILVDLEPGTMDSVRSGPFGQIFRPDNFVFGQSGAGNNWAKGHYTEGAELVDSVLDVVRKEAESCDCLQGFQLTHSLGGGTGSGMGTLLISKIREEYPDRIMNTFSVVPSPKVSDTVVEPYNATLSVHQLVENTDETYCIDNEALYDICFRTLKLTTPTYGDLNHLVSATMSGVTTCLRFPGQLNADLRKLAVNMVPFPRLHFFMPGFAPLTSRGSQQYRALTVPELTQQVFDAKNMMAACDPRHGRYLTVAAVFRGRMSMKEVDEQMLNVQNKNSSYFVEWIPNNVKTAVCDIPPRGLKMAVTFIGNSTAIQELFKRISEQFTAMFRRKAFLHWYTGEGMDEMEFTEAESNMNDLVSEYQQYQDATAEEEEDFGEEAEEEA
UniProt O95989: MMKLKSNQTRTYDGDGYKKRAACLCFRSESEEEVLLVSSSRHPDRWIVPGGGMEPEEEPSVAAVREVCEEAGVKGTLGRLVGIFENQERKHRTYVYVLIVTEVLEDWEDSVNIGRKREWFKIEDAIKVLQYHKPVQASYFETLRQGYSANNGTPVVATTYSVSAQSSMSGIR
UniProt P11172: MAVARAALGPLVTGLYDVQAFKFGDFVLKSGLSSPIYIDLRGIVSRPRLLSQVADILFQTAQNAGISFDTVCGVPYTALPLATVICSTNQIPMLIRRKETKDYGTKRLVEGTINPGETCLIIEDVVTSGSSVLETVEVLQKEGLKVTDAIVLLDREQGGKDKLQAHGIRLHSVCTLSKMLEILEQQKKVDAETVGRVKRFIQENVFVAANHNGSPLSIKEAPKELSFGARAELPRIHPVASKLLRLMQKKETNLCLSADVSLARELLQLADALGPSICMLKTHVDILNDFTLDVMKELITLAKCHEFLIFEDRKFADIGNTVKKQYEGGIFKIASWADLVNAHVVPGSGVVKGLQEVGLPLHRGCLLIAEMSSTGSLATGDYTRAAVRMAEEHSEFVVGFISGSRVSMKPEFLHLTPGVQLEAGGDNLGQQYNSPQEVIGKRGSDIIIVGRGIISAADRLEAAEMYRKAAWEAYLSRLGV
UniProt P09110: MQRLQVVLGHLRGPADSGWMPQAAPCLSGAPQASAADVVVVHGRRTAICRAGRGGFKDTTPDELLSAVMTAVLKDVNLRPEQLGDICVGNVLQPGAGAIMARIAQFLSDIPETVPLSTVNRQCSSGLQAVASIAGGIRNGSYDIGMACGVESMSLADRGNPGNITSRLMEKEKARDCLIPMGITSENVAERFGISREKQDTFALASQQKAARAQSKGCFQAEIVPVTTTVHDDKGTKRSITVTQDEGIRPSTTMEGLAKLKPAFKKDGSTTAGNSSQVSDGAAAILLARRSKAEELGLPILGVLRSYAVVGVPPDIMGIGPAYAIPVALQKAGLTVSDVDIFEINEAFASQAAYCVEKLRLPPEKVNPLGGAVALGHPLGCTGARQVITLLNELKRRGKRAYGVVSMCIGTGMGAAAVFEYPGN
UniProt P09471, whole entry, looked up: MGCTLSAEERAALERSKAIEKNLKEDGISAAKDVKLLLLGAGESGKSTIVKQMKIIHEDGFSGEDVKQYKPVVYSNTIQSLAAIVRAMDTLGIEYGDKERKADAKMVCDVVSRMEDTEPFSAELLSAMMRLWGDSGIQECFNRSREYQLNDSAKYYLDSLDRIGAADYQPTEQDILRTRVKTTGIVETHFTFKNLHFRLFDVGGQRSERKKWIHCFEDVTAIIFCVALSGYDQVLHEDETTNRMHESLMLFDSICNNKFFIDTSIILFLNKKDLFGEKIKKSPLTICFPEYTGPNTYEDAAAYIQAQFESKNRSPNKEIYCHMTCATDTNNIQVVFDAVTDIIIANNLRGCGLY
UniProt P11177, whole entry: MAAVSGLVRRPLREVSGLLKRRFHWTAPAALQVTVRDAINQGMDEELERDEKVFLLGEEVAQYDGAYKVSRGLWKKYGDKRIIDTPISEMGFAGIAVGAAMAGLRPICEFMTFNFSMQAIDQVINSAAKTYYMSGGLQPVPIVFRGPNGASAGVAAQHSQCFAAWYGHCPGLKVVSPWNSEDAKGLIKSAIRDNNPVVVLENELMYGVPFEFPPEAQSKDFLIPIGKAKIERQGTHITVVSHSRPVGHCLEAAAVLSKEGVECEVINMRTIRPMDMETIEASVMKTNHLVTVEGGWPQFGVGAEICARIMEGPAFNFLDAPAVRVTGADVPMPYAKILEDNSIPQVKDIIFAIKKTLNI
UniProt P10586, whole entry: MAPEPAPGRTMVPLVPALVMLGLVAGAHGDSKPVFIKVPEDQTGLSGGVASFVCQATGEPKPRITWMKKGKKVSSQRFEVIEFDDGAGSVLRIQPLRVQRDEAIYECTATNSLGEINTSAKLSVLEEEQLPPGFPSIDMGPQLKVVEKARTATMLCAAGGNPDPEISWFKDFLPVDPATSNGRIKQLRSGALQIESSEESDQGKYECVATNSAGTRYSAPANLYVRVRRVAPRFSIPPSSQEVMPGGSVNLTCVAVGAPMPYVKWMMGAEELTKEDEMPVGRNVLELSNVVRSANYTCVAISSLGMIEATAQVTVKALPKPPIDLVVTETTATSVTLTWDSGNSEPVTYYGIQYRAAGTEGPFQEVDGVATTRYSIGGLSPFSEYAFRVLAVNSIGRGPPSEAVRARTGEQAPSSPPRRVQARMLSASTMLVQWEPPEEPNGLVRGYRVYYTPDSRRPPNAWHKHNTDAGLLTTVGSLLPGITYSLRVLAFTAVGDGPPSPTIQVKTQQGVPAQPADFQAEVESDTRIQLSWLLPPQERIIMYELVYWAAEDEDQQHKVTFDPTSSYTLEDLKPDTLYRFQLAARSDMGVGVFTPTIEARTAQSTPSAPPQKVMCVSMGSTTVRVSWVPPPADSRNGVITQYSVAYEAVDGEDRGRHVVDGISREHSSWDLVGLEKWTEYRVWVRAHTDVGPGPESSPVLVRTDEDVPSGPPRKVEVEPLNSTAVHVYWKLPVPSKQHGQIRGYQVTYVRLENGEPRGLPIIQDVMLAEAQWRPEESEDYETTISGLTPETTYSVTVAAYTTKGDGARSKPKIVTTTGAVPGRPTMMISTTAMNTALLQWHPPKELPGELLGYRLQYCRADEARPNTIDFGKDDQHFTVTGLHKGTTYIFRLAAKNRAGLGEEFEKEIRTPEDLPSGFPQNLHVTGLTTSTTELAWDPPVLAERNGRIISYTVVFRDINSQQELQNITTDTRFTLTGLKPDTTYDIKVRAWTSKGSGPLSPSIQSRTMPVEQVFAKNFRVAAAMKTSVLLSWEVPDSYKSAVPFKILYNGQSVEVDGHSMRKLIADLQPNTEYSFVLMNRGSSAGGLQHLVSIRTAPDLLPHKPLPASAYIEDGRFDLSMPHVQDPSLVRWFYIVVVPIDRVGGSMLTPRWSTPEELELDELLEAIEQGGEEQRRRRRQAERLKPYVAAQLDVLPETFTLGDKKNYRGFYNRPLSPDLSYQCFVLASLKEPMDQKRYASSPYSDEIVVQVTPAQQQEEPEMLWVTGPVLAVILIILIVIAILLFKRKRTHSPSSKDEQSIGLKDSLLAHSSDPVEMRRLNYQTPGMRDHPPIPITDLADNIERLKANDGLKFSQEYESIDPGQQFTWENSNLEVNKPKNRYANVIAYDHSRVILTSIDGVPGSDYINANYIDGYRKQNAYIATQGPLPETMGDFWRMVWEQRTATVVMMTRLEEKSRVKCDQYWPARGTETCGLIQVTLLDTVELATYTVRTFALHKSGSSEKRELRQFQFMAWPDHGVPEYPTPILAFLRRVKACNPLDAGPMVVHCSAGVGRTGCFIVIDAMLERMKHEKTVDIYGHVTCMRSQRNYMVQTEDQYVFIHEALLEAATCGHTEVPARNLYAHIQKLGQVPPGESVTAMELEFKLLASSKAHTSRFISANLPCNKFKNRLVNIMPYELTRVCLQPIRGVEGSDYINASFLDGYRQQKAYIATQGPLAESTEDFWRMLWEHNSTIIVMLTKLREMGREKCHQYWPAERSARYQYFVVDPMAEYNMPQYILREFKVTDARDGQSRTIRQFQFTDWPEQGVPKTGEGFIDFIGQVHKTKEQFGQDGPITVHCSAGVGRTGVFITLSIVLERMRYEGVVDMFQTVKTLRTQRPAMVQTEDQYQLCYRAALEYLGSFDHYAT
UniProt P08134, whole entry: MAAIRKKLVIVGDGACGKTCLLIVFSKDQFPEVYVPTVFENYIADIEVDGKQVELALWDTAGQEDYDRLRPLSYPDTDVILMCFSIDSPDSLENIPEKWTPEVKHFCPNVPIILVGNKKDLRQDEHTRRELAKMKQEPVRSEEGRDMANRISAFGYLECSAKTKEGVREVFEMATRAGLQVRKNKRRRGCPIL
UniProt P08621, whole entry: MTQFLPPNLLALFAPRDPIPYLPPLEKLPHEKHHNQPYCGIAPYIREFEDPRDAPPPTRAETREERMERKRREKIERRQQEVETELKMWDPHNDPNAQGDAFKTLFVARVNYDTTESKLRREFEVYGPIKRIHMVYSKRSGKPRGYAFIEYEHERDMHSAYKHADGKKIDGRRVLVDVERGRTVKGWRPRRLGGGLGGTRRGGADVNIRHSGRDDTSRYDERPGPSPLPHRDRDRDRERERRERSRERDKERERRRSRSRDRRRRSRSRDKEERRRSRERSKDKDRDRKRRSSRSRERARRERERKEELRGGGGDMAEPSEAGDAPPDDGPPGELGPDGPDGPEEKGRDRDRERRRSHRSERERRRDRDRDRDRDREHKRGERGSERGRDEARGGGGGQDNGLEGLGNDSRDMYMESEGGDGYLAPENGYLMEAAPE
UniProt P06576, whole entry: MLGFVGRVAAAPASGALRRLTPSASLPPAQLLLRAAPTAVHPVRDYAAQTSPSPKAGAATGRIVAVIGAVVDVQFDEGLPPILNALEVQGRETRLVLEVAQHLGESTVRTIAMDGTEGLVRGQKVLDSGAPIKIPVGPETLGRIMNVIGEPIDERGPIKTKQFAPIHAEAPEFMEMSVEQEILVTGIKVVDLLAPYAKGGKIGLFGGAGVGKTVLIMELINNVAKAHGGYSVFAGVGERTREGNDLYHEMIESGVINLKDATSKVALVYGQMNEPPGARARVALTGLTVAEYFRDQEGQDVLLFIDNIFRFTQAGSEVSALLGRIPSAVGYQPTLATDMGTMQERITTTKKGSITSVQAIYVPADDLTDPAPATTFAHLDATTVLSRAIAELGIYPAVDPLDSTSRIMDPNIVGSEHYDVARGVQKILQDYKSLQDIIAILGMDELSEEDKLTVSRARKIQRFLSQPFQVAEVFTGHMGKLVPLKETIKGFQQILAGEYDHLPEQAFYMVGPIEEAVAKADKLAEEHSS
UniProt P04083: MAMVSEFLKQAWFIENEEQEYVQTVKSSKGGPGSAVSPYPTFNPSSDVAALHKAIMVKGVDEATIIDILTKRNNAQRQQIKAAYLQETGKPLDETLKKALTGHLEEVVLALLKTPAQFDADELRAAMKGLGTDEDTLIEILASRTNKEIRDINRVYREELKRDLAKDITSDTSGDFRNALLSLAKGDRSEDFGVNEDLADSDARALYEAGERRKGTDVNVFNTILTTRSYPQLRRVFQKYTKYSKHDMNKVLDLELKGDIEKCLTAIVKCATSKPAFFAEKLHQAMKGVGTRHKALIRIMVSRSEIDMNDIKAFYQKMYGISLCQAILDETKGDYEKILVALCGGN
UniProt P11387: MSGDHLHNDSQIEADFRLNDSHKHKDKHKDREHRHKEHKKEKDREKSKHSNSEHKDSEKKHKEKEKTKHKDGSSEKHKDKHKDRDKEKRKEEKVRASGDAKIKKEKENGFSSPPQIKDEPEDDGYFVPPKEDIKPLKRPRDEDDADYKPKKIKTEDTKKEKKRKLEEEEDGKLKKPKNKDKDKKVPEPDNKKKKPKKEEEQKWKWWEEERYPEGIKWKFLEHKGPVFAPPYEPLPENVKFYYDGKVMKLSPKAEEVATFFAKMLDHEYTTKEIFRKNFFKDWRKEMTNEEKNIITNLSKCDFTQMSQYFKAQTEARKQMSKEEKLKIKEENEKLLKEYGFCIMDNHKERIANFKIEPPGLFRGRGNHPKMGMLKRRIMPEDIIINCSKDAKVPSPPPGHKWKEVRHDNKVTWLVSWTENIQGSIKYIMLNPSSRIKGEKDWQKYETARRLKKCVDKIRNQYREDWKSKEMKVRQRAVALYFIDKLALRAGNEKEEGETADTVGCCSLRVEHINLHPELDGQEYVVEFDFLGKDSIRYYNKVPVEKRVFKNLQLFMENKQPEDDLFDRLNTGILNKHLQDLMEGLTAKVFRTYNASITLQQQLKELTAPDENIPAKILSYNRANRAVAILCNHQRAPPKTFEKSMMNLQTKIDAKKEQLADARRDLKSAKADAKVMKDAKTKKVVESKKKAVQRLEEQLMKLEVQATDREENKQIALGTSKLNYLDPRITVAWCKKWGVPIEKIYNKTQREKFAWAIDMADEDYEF

± gives the standard deviation of the averaged measurements. The list shows a part of the results, in another mix than the full data. Most values lie at the level of the controls, where differences are scatter.

Compound in this test: Nc1ncnc2c1ncn2[C@@H]1O[C@H](COP(=O)(O)OP(=O)(O)OP(=O)(O)O)[C@@H](O)[C@H]1O [adenosine triphosphate]
Nature of the test: NP40-soluble protein abundance relative to vehicle (solubility fold change) (ratio); higher = more soluble protein in presence of ATP. In short, it runs like this: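 Crude Jurkat lysate, prepared by Dounce homogenisation, was exposed to eight concentrations from 0.1 to 10 mM for 10 min at room temperature and then 3 min at 37 °C. Solubilisation used 0.8% NP40 with benzonase for 60 min at 4 °C, followed by ultracentrifugation and TMT labelling of the supernatant for LC-MS/MS. After vsn normalisation of intensities, each value is the fold change against the detergent-processed vehicle within each replicate, across three independent experiments.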

As for UniProt P07437, the NP40-soluble protein abundance (concentration: 0.1mM) came to 0.964 ± 0.049 and the NP40-soluble protein abundance (concentration: 0.5mM) came to 1.03 ± 0.045.

On to NUDT3 (UniProt O95989), for which the NP40-soluble protein abundance was found to be 1.02 ± 0.082 (concentration: 0.1mM) and 1.04 ± 0.055 (concentration: 0.5mM).

As for UMPS (UniProt P11172), the NP40-soluble protein abundance stood at 1.06 ± 0.08 (concentration: 0.1mM) and 1.04 ± 0.065 (concentration: 0.5mM).

As for ACAA1 (UniProt P09110), the NP40-soluble protein abundance by setting is: (concentration: 0.1mM) 0.99467 ± 0.00042; (concentration: 0.5mM) 1.01 ± 0.047.

UniProt P09471-2: the NP40-soluble protein abundance is, setting by setting: (concentration: 0.1mM) 1.03 ± 0.055; (concentration: 0.5mM) 1.01 ± 0.032; (concentration: 1mM) 1.04 ± 0.059; (concentration: 2mM) 0.979 ± 0.043; (concentration: 4mM) 0.949 ± 0.052; (concentration: 6mM) 0.975 ± 0.1. Also, the NP40-soluble protein abundance is, setting by setting: (concentration: 8mM) 0.9637 ± 0.0096; (concentration: 10mM) 0.969 ± 0.014.

As to UniProt P07954-2, the NP40-soluble protein abundance runs as follows: (concentration: 0.1mM) 0.991 ± 0.03; (concentration: 0.5mM) 0.992 ± 0.047.

Regarding UniProt O96028 and related entries, the NP40-soluble protein abundance by setting is: (concentration: 0.1mM) 1.02 ± 0.054; (concentration: 0.5mM) 1.22 ± 0.083; (concentration: 1mM) 1.31 ± 0.054; (concentration: 2mM) 1.45 ± 0.072; (concentration: 4mM) 1.54 ± 0.11; (concentration: 6mM) 1.62 ± 0.12. The NP40-soluble protein abundance by setting is: (concentration: 8mM) 1.62 ± 0.12; (concentration: 10mM) 1.74 ± 0.18.

As to UniProt P11177 and related entries, the NP40-soluble protein abundance (concentration: 0.1mM) is 1.01 ± 0.069; the NP40-soluble protein abundance (concentration: 0.5mM) came out at 1.11 ± 0.09; the NP40-soluble protein abundance (concentration: 1mM) is 1.14 ± 0.069; the NP40-soluble protein abundance (concentration: 2mM) turned out to be 1.04 ± 0.041; the NP40-soluble protein abundance (concentration: 4mM) is 1 ± 0.05; the NP40-soluble protein abundance (concentration: 6mM) amounted to 1.02 ± 0.18. Moreover, the NP40-soluble protein abundance runs as follows: (concentration: 8mM) 1.05 ± 0.14; (concentration: 10mM) 1.02 ± 0.12.

With UniProt P10586 and related entries, the NP40-soluble protein abundance came out at 0.981 ± 0.049 (concentration: 0.1mM) and 0.9787 ± 0.0037 (concentration: 0.5mM).

With SPN (UniProt P16150), the NP40-soluble protein abundance is 0.834 ± 0.17 (concentration: 0.1mM); 0.767 ± 0.23 (concentration: 0.5mM); 0.828 ± 0.17 (concentration: 1mM); 0.803 ± 0.16 (concentration: 2mM); 0.812 ± 0.13 (concentration: 4mM); 0.835 ± 0.14 (concentration: 6mM). Also, the NP40-soluble protein abundance is, setting by setting: (concentration: 8mM) 0.765 ± 0.094; (concentration: 10mM) 0.71 ± 0.2.

For UniProt P08134 and related entries, the NP40-soluble protein abundance is 1.05 ± 0.077 (concentration: 0.1mM); 1.05 ± 0.061 (concentration: 0.5mM); 0.974 ± 0.053 (concentration: 1mM); 0.998 ± 0.031 (concentration: 2mM); 0.975 ± 0.024 (concentration: 4mM); 1 ± 0.05 (concentration: 6mM). Further, the NP40-soluble protein abundance is 0.957 ± 0.067 (concentration: 8mM) and 0.971 ± 0.027 (concentration: 10mM).

UniProt P08621 and related entries: the NP40-soluble protein abundance is, setting by setting: (concentration: 0.1mM) 1.02 ± 0.032; (concentration: 0.5mM) 1.29 ± 0.099; (concentration: 1mM) 1.33 ± 0.049; (concentration: 2mM) 1.42 ± 0.083; (concentration: 4mM) 1.59 ± 0.078; (concentration: 6mM) 1.74 ± 0.096. Moreover, the NP40-soluble protein abundance (concentration: 8mM) was 1.88 ± 0.077 and the NP40-soluble protein abundance (concentration: 10mM) stood at 1.97 ± 0.14.

With UniProt P06576 and related entries, the NP40-soluble protein abundance (concentration: 0.1mM) is 0.87 ± 0.23; the NP40-soluble protein abundance (concentration: 0.5mM) came to 1.1 ± 0.16; the NP40-soluble protein abundance (concentration: 1mM) worked out at 0.822 ± 0.18; the NP40-soluble protein abundance (concentration: 2mM) came out at 1.04 ± 0.22; the NP40-soluble protein abundance (concentration: 4mM) stood at 0.825 ± 0.21; the NP40-soluble protein abundance (concentration: 6mM) was 1.07 ± 0.2. Moreover, the NP40-soluble protein abundance amounted to 1.05 ± 0.16 (concentration: 8mM) and 0.814 ± 0.21 (concentration: 10mM).

UniProt P04083 and related entries: the NP40-soluble protein abundance runs as follows: (concentration: 0.1mM) 0.924 ± 0.048; (concentration: 0.5mM) 0.903 ± 0.057.

TOP1 (UniProt P11387): the NP40-soluble protein abundance (concentration: 0.1mM) was 1.03 ± 0.018; the NP40-soluble protein abundance (concentration: 0.5mM) was found to be 1.05 ± 0.05; the NP40-soluble protein abundance (concentration: 1mM) is 1.05 ± 0.019; the NP40-soluble protein abundance (concentration: 2mM) is 1.088 ± 0.0094; the NP40-soluble protein abundance (concentration: 4mM) is 1.22 ± 0.028; the NP40-soluble protein abundance (concentration: 6mM) amounted to 1.42 ± 0.035. The NP40-soluble protein abundance reads like this: (concentration: 8mM) 1.599 ± 0.0062; (concentration: 10mM) 1.78 ± 0.074.

Consider GAA (UniProt P10253), for which the NP40-soluble protein abundance is, setting by setting: (concentration: 0.1mM) 1 ± 0.026; (concentration: 0.5mM) 0.999 ± 0.02; (concentration: 1mM) 0.981 ± 0.012; (concentration: 2mM) 1.01 ± 0.021; (concentration: 4mM) 1 ± 0.028; (concentration: 6mM) 0.972 ± 0.015. The NP40-soluble protein abundance runs as follows: (concentration: 8mM) 0.962 ± 0.055; (concentration: 10mM) 0.997 ± 0.033.
